This passage reports binding results from article PMC8422350.

The chains behind the UniProt entries cited, without tags or fusion partners.
UniProt Q99JF8: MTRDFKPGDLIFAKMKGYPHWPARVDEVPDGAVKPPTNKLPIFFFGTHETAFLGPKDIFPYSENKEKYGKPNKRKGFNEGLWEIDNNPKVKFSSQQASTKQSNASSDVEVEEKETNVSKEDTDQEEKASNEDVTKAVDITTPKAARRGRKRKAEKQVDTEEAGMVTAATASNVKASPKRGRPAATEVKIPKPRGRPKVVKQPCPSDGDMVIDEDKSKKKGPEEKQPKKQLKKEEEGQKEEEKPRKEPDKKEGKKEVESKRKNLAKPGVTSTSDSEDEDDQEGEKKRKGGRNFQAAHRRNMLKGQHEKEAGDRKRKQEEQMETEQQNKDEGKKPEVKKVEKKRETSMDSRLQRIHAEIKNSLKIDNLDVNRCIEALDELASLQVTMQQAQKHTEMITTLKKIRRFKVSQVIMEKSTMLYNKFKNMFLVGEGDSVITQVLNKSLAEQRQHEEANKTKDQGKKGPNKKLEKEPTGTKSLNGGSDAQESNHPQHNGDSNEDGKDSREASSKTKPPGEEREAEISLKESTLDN
UniProt P11103: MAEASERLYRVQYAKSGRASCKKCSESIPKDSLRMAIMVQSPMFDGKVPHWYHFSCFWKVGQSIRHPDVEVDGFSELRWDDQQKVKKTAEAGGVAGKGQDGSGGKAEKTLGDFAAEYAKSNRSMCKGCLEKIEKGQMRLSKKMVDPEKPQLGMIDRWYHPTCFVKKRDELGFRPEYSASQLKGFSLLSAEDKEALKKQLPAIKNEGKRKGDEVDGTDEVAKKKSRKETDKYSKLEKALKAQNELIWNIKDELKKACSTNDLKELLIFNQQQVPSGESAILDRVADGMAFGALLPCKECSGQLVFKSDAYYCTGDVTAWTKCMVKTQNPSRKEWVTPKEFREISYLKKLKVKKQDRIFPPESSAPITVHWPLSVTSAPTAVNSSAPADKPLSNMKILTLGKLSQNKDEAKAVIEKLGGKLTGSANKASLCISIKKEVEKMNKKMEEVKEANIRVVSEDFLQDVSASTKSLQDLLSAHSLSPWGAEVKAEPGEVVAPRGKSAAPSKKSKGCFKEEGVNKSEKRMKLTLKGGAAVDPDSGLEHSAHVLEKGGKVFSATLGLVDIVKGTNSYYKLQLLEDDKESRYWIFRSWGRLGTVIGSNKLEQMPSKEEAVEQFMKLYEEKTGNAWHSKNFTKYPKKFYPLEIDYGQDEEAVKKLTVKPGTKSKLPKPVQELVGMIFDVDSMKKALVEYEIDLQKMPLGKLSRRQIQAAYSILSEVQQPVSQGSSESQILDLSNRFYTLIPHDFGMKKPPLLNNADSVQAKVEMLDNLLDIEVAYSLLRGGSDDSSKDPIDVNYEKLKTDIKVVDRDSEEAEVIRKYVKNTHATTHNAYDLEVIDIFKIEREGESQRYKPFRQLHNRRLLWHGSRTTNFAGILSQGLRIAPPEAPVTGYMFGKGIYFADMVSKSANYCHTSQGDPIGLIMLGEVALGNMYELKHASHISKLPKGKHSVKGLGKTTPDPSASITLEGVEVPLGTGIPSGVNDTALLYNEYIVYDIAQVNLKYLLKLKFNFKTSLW

The target in this test is PC4 and SF2 interacting protein (PSIP1/LEDGF), longer isoform p75, endogenous (mouse (endogenous in MEFs and mESCs)) (UniProt Q99JF8). The test can be described thus: co-IP; immunoprecipitation of endogenous PSIP/p75 with anti-PSIP/p75 (normal IgG as control) from nuclear lysate, western blotting; cell type not stated. For orientation: Immunoblotting shows a protein as a band on a membrane.

Results are given in words; binding and its absence hold for the method and conditions named. In cells and extracts the contact can be indirect. Some results given as binding are weak or reduced against the parent protein; the word gives no strength.

As for PARP1 (from UniProt P11103 1-1013), the binding entry is listed as “binds”.
